According to article PMC7948452:
Read-outs that look alike come from different tables or passages of the source. Results are given in words; binding and its absence hold for the method and conditions named. Binding seen in cells or lysates may run through a third protein. Some binding calls cover weakened binding; strength is not graded here. Sequences can lack the tags named with a protein. Values belong to the molecule of their own block, whether it stands above or below them.

Protein sequences, listed by entry. Tags and fused reporters are not part of them.
UniProt Q13547: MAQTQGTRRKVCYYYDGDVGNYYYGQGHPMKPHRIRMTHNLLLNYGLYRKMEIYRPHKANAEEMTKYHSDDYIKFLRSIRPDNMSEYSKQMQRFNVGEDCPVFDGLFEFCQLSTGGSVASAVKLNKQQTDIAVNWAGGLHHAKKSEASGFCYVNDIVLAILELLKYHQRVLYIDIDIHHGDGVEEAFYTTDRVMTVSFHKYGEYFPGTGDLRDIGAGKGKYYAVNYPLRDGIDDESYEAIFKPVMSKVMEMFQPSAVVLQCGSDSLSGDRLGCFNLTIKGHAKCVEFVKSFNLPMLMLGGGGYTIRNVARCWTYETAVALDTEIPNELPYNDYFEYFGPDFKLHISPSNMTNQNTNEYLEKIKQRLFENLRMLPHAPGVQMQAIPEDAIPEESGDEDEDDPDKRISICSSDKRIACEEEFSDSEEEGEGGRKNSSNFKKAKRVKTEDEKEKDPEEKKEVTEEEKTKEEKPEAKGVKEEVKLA
UniProt Q96EB6: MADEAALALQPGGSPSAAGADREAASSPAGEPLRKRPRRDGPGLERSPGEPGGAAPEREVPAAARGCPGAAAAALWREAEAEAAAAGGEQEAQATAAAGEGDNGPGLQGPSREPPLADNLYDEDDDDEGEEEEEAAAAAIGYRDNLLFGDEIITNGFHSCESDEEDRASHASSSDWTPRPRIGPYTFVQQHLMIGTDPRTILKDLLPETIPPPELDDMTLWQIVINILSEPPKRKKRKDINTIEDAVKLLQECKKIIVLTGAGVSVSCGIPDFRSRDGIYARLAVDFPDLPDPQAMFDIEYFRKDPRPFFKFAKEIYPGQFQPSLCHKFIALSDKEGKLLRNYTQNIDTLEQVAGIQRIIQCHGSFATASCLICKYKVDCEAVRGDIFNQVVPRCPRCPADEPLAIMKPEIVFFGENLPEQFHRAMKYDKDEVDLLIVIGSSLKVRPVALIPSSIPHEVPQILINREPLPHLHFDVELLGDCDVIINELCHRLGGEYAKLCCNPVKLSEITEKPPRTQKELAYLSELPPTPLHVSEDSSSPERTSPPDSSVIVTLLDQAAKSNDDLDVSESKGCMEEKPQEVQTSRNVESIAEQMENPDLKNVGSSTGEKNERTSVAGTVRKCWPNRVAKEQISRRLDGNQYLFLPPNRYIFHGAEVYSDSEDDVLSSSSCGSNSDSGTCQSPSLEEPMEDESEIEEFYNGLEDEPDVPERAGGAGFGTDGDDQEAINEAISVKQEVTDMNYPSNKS
UniProt Q09472: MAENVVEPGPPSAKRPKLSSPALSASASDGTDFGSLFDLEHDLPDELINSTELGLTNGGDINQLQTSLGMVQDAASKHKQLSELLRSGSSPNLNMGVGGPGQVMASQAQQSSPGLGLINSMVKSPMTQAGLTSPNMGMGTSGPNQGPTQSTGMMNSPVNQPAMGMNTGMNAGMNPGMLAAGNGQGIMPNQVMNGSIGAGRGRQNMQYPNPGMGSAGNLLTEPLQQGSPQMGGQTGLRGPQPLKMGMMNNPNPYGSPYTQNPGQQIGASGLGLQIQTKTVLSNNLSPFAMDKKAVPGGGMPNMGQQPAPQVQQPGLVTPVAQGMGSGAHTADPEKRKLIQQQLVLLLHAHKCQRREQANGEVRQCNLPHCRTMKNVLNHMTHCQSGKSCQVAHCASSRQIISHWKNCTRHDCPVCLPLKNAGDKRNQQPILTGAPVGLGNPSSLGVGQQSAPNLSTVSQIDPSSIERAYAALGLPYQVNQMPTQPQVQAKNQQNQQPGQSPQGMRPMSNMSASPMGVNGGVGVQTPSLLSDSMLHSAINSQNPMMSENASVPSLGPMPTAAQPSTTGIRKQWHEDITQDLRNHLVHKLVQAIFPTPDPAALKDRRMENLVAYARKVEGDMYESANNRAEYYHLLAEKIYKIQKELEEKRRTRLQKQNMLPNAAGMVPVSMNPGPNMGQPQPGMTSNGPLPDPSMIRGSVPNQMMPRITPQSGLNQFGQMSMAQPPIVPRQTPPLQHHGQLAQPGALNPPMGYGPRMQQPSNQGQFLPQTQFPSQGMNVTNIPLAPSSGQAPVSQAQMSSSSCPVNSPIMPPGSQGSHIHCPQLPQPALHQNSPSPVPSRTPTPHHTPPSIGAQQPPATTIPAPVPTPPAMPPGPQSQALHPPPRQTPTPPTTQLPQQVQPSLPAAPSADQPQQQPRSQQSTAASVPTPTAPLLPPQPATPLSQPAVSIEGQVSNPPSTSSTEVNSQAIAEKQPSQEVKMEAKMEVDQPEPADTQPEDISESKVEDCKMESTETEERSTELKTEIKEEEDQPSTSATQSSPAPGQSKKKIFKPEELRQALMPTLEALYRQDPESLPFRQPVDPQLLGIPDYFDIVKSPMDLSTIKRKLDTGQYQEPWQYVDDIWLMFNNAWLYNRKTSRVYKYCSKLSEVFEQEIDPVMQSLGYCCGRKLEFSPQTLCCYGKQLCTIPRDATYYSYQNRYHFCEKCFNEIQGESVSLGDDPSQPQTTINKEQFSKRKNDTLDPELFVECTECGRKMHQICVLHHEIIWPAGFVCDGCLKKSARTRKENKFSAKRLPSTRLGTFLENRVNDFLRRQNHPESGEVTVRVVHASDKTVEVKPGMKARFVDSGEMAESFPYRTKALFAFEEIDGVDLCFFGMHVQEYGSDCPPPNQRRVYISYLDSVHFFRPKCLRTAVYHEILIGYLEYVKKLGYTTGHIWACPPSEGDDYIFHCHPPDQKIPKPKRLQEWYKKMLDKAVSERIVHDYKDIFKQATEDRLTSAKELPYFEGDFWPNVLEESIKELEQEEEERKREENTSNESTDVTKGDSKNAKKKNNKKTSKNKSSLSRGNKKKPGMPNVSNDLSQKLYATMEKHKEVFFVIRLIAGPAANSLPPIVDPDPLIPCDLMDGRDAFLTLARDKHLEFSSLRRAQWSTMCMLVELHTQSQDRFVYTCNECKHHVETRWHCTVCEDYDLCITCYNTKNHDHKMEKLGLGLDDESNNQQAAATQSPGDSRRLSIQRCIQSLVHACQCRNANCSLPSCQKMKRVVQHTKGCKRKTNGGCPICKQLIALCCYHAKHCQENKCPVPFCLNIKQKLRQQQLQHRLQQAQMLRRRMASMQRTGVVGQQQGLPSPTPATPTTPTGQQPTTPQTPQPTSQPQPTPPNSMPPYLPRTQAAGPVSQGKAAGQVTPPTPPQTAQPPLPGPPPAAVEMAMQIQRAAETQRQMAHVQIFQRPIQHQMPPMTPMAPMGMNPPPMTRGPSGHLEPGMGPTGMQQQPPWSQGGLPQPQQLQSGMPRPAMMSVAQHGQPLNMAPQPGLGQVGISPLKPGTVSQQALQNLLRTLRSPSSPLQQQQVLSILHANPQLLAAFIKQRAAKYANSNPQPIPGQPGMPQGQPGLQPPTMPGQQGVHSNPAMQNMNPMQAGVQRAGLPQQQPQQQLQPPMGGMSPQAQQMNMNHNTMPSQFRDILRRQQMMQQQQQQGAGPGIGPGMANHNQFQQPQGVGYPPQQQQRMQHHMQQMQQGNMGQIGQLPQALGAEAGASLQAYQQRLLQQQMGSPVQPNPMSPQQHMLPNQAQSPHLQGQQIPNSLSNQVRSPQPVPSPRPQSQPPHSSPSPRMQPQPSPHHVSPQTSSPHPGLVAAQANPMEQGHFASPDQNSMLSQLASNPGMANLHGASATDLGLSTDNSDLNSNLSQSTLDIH
UniProt Q9NS91: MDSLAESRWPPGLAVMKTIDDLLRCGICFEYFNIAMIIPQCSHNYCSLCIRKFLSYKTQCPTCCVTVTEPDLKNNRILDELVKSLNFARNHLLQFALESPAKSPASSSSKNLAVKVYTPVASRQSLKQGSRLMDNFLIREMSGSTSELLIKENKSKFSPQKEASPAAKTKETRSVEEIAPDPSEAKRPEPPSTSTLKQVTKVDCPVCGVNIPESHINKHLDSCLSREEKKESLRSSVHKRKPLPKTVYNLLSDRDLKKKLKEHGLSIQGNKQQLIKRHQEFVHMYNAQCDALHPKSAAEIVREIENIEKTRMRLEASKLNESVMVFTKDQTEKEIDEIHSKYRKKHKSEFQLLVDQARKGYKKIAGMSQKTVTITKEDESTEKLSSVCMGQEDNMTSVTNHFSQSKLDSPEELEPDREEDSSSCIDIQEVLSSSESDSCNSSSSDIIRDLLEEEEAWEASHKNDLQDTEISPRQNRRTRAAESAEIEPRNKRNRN

Key:
Assay in all cases: co-IP; 293T cells; lysis in 1% Triton X-100, 50 mM Tris-HCl pH 8.0, 150 mM NaCl; anti-FLAG M2 or anti-HA affinity gel, 2 h at 4 °C; five washes; elution with 3x FLAG peptide; western blot
FLAG-TULP3 (human) [1] = target: T1, FLAG-TULP3 (human) (UniProt O75386)
T1 sequence: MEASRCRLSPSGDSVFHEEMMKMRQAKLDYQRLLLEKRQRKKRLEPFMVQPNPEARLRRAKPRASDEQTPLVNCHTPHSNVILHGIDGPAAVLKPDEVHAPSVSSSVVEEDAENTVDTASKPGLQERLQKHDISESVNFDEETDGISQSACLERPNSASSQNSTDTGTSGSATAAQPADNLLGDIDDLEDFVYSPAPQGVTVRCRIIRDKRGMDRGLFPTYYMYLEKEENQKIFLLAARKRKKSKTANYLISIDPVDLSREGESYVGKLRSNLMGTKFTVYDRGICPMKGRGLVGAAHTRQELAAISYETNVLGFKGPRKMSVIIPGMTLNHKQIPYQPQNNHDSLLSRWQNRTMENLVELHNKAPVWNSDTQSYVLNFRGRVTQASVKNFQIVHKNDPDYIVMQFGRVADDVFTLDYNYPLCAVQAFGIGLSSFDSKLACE

FLAG-TULP3 (human) [2] = target: T1, FLAG-TULP3 (human); remark: listed apart in the source
HA-HDAC1 = HA-HDAC1 (UniProt Q13547)
[3] = target: SIRT1 (human (endogenous in HEK293T)) (UniProt Q96EB6)
p300 = p300 (UniProt Q09472)

binding (FLAG-TULP3 (human) [1]): binds
Molecule: p300 (from UniProt Q09472 1-2414) (enzyme)

binding (FLAG-TULP3 (human) [1]): binds
Molecule: HA-HDAC1 (from UniProt Q13547 1-482) (enzyme)

binding (FLAG-TULP3 (human) [1]): binds
Molecule: RAD18 (from UniProt Q9NS91 1-495) (enzyme)

binding (FLAG-TULP3 (human) [2]): binds
B1: PP6R3/SAPS3 (protein, UniProt Q5H9R7 1-873)
chain: MFWKFDLHSSSHIDTLLEREDVTLKELMDEEDVLQECKAQNRKLIEFLLKAECLEDLVSFIIEEPPQDMDEKIRYKYPNISCELLTSDVSQMNDRLGEDESLLMKLYSFLLNDSPLNPLLASFFSKVLSILISRKPEQIVDFLKKKHDFVDLIIKHIGTSAIMDLLLRLLTCIEPPQPRQDVLNWLNEEKIIQRLVEIVHPSQEEDRHSNASQSLCEIVRLSRDQMLQIQNSTEPDPLLATLEKQEIIEQLLSNIFHKEKNESAIVSAIQILLTLLETRRPTFEGHIEICPPGMSHSACSVNKSVLEAIRGRLGSFHELLLEPPKKSVMKTTWGVLDPPVGNTRLNVIRLISSLLQTNTSSINGDLMELNSIGVILNMFFKYTWNNFLHTQVEICIALILASPFENTENATITDQDSTGDNLLLKHLFQKCQLIERILEAWEMNEKKQAEGGRRHGYMGHLTRIANCIVHSTDKGPNSALVQQLIKDLPDEVRERWETFCTSSLGETNKRNTVDLVTTCHIHSSSDDEIDFKETGFSQDSSLQQAFSDYQMQQMTSNFIDQFGFNDEKFADQDDIGNVSFDRVSDINFTLNTNESGNIALFEACCKERIQQFDDGGSDEEDIWEEKHIAFTPESQRRSSSGSTDSEESTDSEEEDGAKQDLFEPSSANTEDKMEVDLSEPPNWSANFDVPMETTHGAPLDSVGSDVWSTEEPMPTKETGWASFSEFTSSLSTKDSLRSNSPVEMETSTEPMDPLTPSAAALAVQPEAAGSVAMEASSDGEEDAESTDKVTETVMNGGMKETLSLTVDAKTETAVFKSEEGKLSTSQDAACKDAEECPETAEAKCAAPRPPSSSPEQRTGQPSAPGDTSVNGPV

binding (HA-HDAC1): binds
binding [3]: binds
binding (p300): binds
B2: FLAG-TULP3 (protein, UniProt O75386 1-442)
chain: T1 sequence
